Experimental data published in the supplement of paper PMC4749390.
Structures can show the parent of a compound that is named as a salt. The list shows a part of the results. This data set is noisy: repeats of one test often differ as much as different tests do.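 Wild-type human LRH-1, a heavily sumoylated nuclear receptor, is tetracycline-inducible in stable JEG3 cells. RT-qPCR measured SUMO-sensitive APOC3 and MUC1 transcripts, which rise with SUMO-less LRH-1 or UBC9 knockdown, versus TBP and DMSO controls. Robust Z-scores beyond ±2 flagged primary hits, followed by toxicity and TBP filtering.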

system: JEG3 expressing hLRH-1; experiment: MUC1 transcript change (ddCt vs TBP and DMSO), Z-score over library; higher = higher MUC1 expression; conditions: 10 µM; time (hr): 24

Row | Structure (SMILES) | MUC1 transcript change (Z-score)
1 | C[C@H]1COc2c(C3(N)CC3)c(F)cc3c(=O)c(C(=O)O)cn1c23 [pazufloxacin mesylate] | -0.852
2 | CCC(C)[C@H]1O[C@]2(C=C[C@@H]1C)C[C@@H]1C[C@@H](C/C=C(\C)[C@@H](OC3C[C@H](OC)C(O[C@H]4C[C@H](OC)[C@@H](NC(C)=O)[C@H](C)O4)[C@H](C)O3)[C@@H](C)/C=C/C=C3\CO[C@@H]4[C@H](O)C(C)=C[C@@H](C(=O)O1)[C@]34O)O2 (stereo partly drawn) [eprinomectin] | -0.581
3 | CCCCCCc1ccc(O)cc1O [hexylresorcinol] | 0.365
4 | O=C(O)c1ccc[n+]([O-])c1 [oxiniacic acid] | -0.56
5 | O=C1CCc2ccc(OCCCCN3CCN(c4cccc(Cl)c4Cl)CC3)cc2N1 [aripiprazole] | 0.298
6 | COC(=O)[C@@H]1[C@H]2C[C@H]3c4[nH]c5ccccc5c4CCN3C[C@@H]2CC[C@@H]1O [yohimbine hydrochloride] | 0.698
7 | C[C@]12C=CC(=O)C=C1CC[C@@H]1[C@@H]2[C@@H](O)C[C@@]2(C)[C@H]1CC[C@]2(O)C(=O)COC(=O)CCC(=O)O [prednisolone hemisuccinate] | -0.0641
8 | CO[C@@H]1[C@@H](O[C@@H]2O[C@H](C)[C@@H](O[C@H]3C[C@@](C)(O)[C@H](O)[C@H](C)O3)[C@H](N(C)C)[C@H]2O)[C@@H](CC=O)C[C@@H](C)[C@@H](O[C@H]2CC[C@H](N(C)C)[C@@H](C)O2)/C=C/C=C/C[C@H](C)OC(=O)C[C@H]1O [spiramycin] | 0.628
9 | C[C@]12CC[C@@H]3c4ccc(O)cc4C[C@@H](CCCCCCCCCS(=O)CCCC(F)(F)C(F)(F)F)[C@H]3[C@@H]1CC[C@@H]2O (stereo partly drawn) [fulvestrant] | -0.348
10 | CCCCOc1cc(C(=O)NCCN(CC)CC)c2ccccc2n1 [dibucaine hydrochloride] | -0.773
11 | N=C(N)NCC1COC2(CCCCC2)O1 (stereo not drawn) [guanadrel sulfate] | 0.108
12 | COc1c(C)c2c(c(O)c1C/C=C(\C)CCC(=O)O)C(=O)OC2 [mycophenolic acid] | 2.15
13 | CC(=O)OCC(=O)[C@@]12N=C(C)O[C@@H]1C[C@H]1[C@@H]3CCC4=CC(=O)C=C[C@]4(C)[C@H]3[C@@H](O)C[C@@]12C [deflazacort] | 0.00954
14 | CCN1CCCC(OC(=O)C(c2ccccc2)c2ccccc2)C1 (stereo not drawn) [piperidolate hydrochloride] | 1.06
15 | C1CCN2C[C@@H]3C[C@H](CN4CCCC[C@@H]34)[C@H]2C1 [sparteine sulfate] | -0.116
16 | CC(=O)Nc1ccc(CC(=O)O)cc1 [actarit] | -1.64
17 | CCCCCCCCCCCCC[N+](C)(C)Cc1ccccc1 [benzalkonium chloride] | 0.936
18 | CN(C)[C@@H]1C(=O)C(C(=O)NCN2CCCC2)=C(O)[C@@]2(O)C(O)=C3C(=O)c4c(O)cccc4[C@@](C)(O)[C@H]3C[C@@H]12 [rolitetracycline] | 0.579
19 | CC(C)Nc1ncccn1 [isaxonine] | 0.0805
20 | CC(C)(C)NC[C@H](O)c1ccc(O)c(CO)c1 [levalbuterol hydrochloride] | 0.818
21 | CN1C(C(=O)Nc2ccccn2)=C(O)c2sccc2S1(=O)=O [tenoxicam] | -0.0631
22 | CCCCNC(=O)NS(=O)(=O)c1ccc(C)cc1 [Tolbutamide] | -0.487

Row | Structure (SMILES) | MUC1 transcript change (Z-score)
23 | CC(=O)[C@H]1CC[C@H]2[C@@H]3C[C@H](C)C4=CC(=O)CC[C@]4(C)[C@H]3[C@@H](O)C[C@]12C [medrysone] | -1.69
24 | CCCCCCCCCCOc1cc2c(O)c(C(=O)OCC)cnc2cc1OCC [decoquinate] | 0.33
25 | CCc1cccc2c3c([nH]c12)C(CC)(CC(=O)O)OCC3 (stereo not drawn) [etodolac] | 0.183
26 | O=S(=O)(O)c1cc(I)c(O)c2ncccc12 [chiniofon] | 0.916
27 | Cc1cnc(C(=O)NCCc2ccc(S(=O)(=O)NC(=O)NC3CCCCC3)cc2)cn1 [Glipizide] | 0.00505
28 | NC[C@H]1O[C@H](O[C@H]2[C@H](O)[C@@H](O[C@H]3O[C@H](CO)[C@@H](O)[C@H](N)[C@H]3O)[C@H](N)C[C@@H]2N)[C@H](N)C[C@@H]1O [tobramycin] | -0.191
29 | CCc1nc(N)nc(N)c1-c1ccc(Cl)cc1 [pyrimethamine] | -0.356
30 | OC[C@H]1O[C@@H](O[C@H]2[C@H](O)[C@@H](O)[C@@H](O)O[C@@H]2CO)[C@H](O)[C@@H](O)[C@H]1O [lactose monohydrate] | 0.933
31 | COc1ccc(-c2cc(=O)c3c(O)cc(O[C@@H]4O[C@H](CO[C@@H]5O[C@@H](C)[C@H](O)[C@@H](O)[C@H]5O)[C@@H](O)[C@H](O)[C@H]4O)cc3o2)cc1O [diosmin] | 0.337
32 | CCN(CC)CCOC(=O)C(c1ccccc1)C1CCCCC1 (stereo not drawn) [drofenine hydrochloride] | 0.633
33 | COc1ccc(C(=O)c2ccc(C)cc2)c(O)c1 [mexeneone] | -0.104
34 | Clc1ccc(COC(Cn2ccnc2)c2ccc(Cl)cc2Cl)cc1 (stereo not drawn) [econazole nitrate] | -0.313
35 | NC(=O)NC(=O)Cc1ccccc1 [phenacemide] | -0.7
36 | OC[C@@H](O)[C@@H](O[C@@H]1O[C@H](CO)[C@H](O)[C@H](O)[C@H]1O)[C@H](O)[C@@H](O)CO [lacitol] | -0.265
37 | C[n+]1ccccc1/C=N/O [Pralidoxime iodide] | 0.127
38 | O=C(O)c1ccccc1 [benzoic acid] | 0.418
39 | Cc1cc(C(C)(C)CC(C)(C)C)ccc1OCCOCC[N+](C)(C)Cc1ccccc1 [methylbenzethonium chloride] | 0.582
40 | CC(C)[C@H](NC(=O)[C@H](CC(=O)O)NC(=O)[C@H](CCCCN)NC(=O)[C@@H](N)CCCN=C(N)N)C(=O)N[C@@H](Cc1ccc(O)cc1)C(=O)O [thymopentin] | 0.986
41 | CC(=O)[C@H]1CCC2C3CC=C4C[C@@H](O)CC[C@]4(C)C3CC[C@@]21C (stereo partly drawn) [pregnenolone] | 0.195
42 | Cc1cc(NC(=O)C2=C(O)c3ccccc3S(=O)(=O)N2C)no1 [isoxicam] | -0.903
43 | COc1cnc(NS(=O)(=O)c2ccc(N)cc2)nc1 [sulfameter] | -0.313

An excerpt of these results, as labelled records:
CO[C@@H]1[C@@H](O[C@@H]2O[C@H](C)[C@@H](O[C@H]3C[C@@](C)(O)[C@H](O)[C@H](C)O3)[C@H](N(C)C)[C@H]2O)[C@@H](CC=O)C[C@@H](C)[C@@H](O[C@H]2CC[C@H](N(C)C)[C@@H](C)O2)/C=C/C=C/C[C@H](C)OC(=O)C[C@H]1O [spiramycin]
  MUC1 transcript change (Z-score): 0.628
C[C@]12CC[C@@H]3c4ccc(O)cc4C[C@@H](CCCCCCCCCS(=O)CCCC(F)(F)C(F)(F)F)[C@H]3[C@@H]1CC[C@@H]2O (stereo partly drawn) [fulvestrant]
  MUC1 transcript change (Z-score): -0.348
